# In paper PMC12670160, “A drug-repurposing screen of FDA- and EMA-approved drugs identifies two NF-κB inhibitors active against eumycetoma” (Journal of Antimicrobial Chemotherapy, 2025):
# Structures can show the parent of a compound that is named as a salt. Out of some 5,300 compounds screened, about 130 (2.5%) showed an effect of 50% or more. The list shows a part of the results. Square brackets hold non-standard residues; d marks the D form. Peptide text beside a SMILES is read from it.
# Tested on: M. mycetomatis strain mm55
# Conditions: primary screen, metabolic activity vs growth control; 96 h, 2 µM; inhibitor
row,Compound,% viability [%]
1,"COc1cccc(CN2C[Si](C)(C)O[Si](C)(C)C2)c1 [ONC0005443, compound58112]",71
2,"O=C[C@H](O)[C@@H](O)[C@H](O)[C@H](O)CO [ONC0004668, dextrose dglucose]",120.7
3,"OC(Cn1cncn1)(Cn1cncn1)c1ccc(F)cc1F [ONC0005572, fluconazole]",73.77
4,"CCCCN(CC)c1c([N+](=O)[O-])cc(C(F)(F)F)cc1[N+](=O)[O-] [ONC0005308, benfluralin]",131
5,"CCOC(=O)Nc1ccc2c(c1)N(C(=O)CCN(CC)CC)c1ccccc1S2 [ONC0003266, ethacizin]",75.23
6,"NCCc1c[nH]cn1 [ONC0000370, histamine dihydrochloride]",82.94
7,"Cc1ccc(-c2csc3ncnc(SCCC(=O)O)c23)cc1 [ONC0001669, ttp22]",87.44
8,"CC(C)=CCC[C@](C)(O[C@@H]1O[C@H](CO)[C@@H](O)[C@H](O)[C@H]1O)[C@H]1CC[C@]2(C)[C@@H]1[C@H](O)C[C@@H]1[C@@]3(C)CC[C@H](O)C(C)(C)[C@@H]3CC[C@]12C [ONC0002211, ginsenoside ck]",95.28
9,"CCN[C@H]1CN(CCCOC)S(=O)(=O)c2sc(S(N)(=O)=O)cc21 [ONC0004510, brinzolamide]",60.19
10,"Cc1ncc(C[n+]2csc(CCO)c2C)c(N)n1 [ONC0004188, thiamine hydrochloride]",71.41
11,"COc1ccc2c(C(=S)N(C)CC(=O)O)cccc2c1C(F)(F)F [ONC0001130, tolrestat]",91.42
12,"CC(C)(N)CO.Cn1c(=O)c2[nH]c(Br)nc2n(C)c1=O [ONC0003989, pamabrom]",96.32
13,"C=CC(N)CCC(=O)O (stereo not drawn) [ONC0003417, vigabatrin]",74.89
14,"NS(=O)(=O)c1cc(C2(O)NC(=O)c3ccccc32)ccc1Cl (stereo not drawn) [ONC0000305, chlorthalidone]",91.53
15,"COc1cc(OC)cc(-c2ccc3c(-c4ccc(F)cc4)n[nH]c3n2)c1 [ONC0001726, apck110]",106.3
16,"CC(C)(C)C(=O)CN1C(=O)[C@H](NC(=O)Nc2cccc(C(=O)O)c2)CN(C2CCCCC2)c2ccccc21 [ONC0000935, nastorazepide]",59.25
17,"O=C(C(c1ccccc1)c1ccccc1)N1CCN(CC(O)COc2cccc3ncccc23)CC1 (stereo not drawn) [ONC0001368, dofequidar fumarate]",112
18,"CC(=O)OCC(=O)[C@@]1(O)CC[C@H]2[C@@H]3CCC4=CC(=O)CC[C@]4(C)[C@@]3(F)[C@@H](O)C[C@@]21C [ONC0000716, fludrocortisone acetate]",64.5
19,"O=C(O)CCCCCCCC(=O)O [ONC0003021, azelaic acid]",89.13
20,"O=C(O)CN1C(=O)c2cccc3cccc(c23)C1=O [ONC0000703, alrestatin]",120.2

row,Compound,% viability [%]
1,"CC[N+](C)(CC)CCOC(=O)C1c2ccccc2Oc2ccccc21 [ONC0002827, methantheline]",92.6
2,"Cc1ccc(C(=O)c2ccc(CC(=O)O)n2C)cc1 [ONC0000546, tolmetin sodium]",114.1
3,"CCCCN(CCCC)CCCOC(=O)c1ccc(N)cc1 [ONC0002425, butacaine sulfate]",90.95
4,"Cc1ccc2c(c1CCC(=O)O)CC[C@@H](NS(=O)(=O)c1ccc(Cl)cc1)C2 [ONC0001303, terutroban]",45.19
5,"CC(=O)OCC(=O)[C@@]1(O)CC[C@H]2[C@@H]3CCC4=CC(=O)C=C[C@]4(C)[C@@]3(Cl)[C@@H](Cl)C[C@@]21C [ONC0004015, dichlorisone acetate]",80.76
6,"CC(C)Oc1cccc(CC(=O)N2CCC[C@](CC[N+]34CCC(c5ccccc5)(CC3)CC4)(c3ccc(Cl)c(Cl)c3)C2)c1 [ONC0001589, sr140333]",65.88
7,"CC(C)c1c(CN(C)C(C)Cc2ccccc2)n(C)n(-c2ccccc2)c1=O (stereo not drawn) [ONC0005477, famprofazone]",115.2
8,"C=C(NNC(=S)NNC(=S)Nc1ccccc1Cl)c1ccccn1 [ONC0001982, n2chlorophenyl22e212pyridinylethylidenehydrazinocarbothioylhydrazinecarbothioamide]",78.69
9,"CCCCCCCCCCCCCCCC(=O)OC(C)C [ONC0002810, isopropyl palmitate]",113.7
10,"Nc1nc(Nc2ccc3c(c2)CC[C@@H](N2CCCC2)CC3)nn1-c1cc2c(nn1)-c1ccccc1CCC2 [ONC0005604, bemcentinib]",173.5
11,"COc1ccc(Cl)c(Nc2ncnc3cc(OCC4CCN(C)CC4)c(OC)cc23)c1 [ONC0001486, azm475271]",71.57
12,"NNCCc1ccccc1 [ONC0000514, phenelzine sulfate]",72.4
13,"CN1CC[C@@]2(C)c3cc(OC(=O)Nc4ccccc4)ccc3N(C)[C@@H]12 [ONC0005514, phenserine]",85.26
14,"Cn1ncnc1COc1nn2c(-c3c(F)cccc3F)nnc2cc1C1CCC1 [ONC0005565, mrk409]",118.6
15,"CC(=O)N1N=C(c2ccc(N)cc2)c2cc3c(cc2C[C@H]1C)OCO3 [ONC0000787, talampanel]",64.15
16,"C[C@H](NC(=O)[C@@H](Cc1c[nH]c2ccccc12)NC(=O)[C@@H](N)Cc1c[nH]cn1)C(=O)N[C@@H](Cc1c[nH]c2ccccc12)C(=O)N[C@H](Cc1ccccc1)C(=O)N[C@@H](CCCCN)C(N)=O [ONC0000387, u75799e] (H-H[dW]AW[dF]K-NH2)",86.22
17,"C=C1CC[C@H](O)C/C1=C/C=C1\CCC[C@]2(C)[C@@H]([C@H](C)CCCC(C)C)CC[C@@H]12 [ONC0003203, cholecalciferol]",65.15
18,"c1ccc(-c2n[nH]cc2-c2ccnc3ccccc23)nc1 [ONC0003126, ly364947]",69.96
19,"Oc1ccc(Cl)cc1 [ONC0000557, parachlorophenol]",69.2
20,"CCCCn1c(-c2ccccc2)nc(-c2ccccc2)c1CN(Cc1ccc2c(c1)OCO2)Cc1ccc2c(c1)OCO2 [ONC0002511, ndt9513727]",38.93

row,Compound,% viability [%]
1,"COc1cc2c(NC3CCN(C(C)C)CC3)nc(C3CCCCC3)nc2cc1OCCCN1CCCC1 [ONC0001002, unc0638]",86.49
2,"O=c1[nH]nc2c3c(cccc13)N=C(CN1Cc3ccccc3C1)N2 [ONC0000970, e7449]",81.41
3,"Cc1ccnc(NC(=O)C(C)c2cccc(C(=O)c3ccccc3)c2)c1 (stereo not drawn) [ONC0003716, piketoprofen]",97.11
4,"N=C(N)NC(=N)Nc1cccc(Cl)c1 [ONC0002486, mchlorophenylbiguanide]",76.46
5,"CC(Cc1cccc(C(F)(F)F)c1)NCCOC(=O)c1ccccc1 (stereo not drawn) [ONC0003412, benfluorex hydrochloride]",115.7
6,"CC(C)CNc1ccnc(NCc2csc(-c3ccccc3)n2)n1 [ONC0000380, khs101]",85.46
7,"CC(=O)Nc1ccc(C(=O)Nc2ccccc2N)cc1 [ONC0005213, ci994 tacedinaline]",115.9
8,"COc1cc2c(Nc3ccc(NC(=O)c4ccccc4)cc3)ncnc2cc1OCCCN1CCOCC1 [ONC0003607, zm447439]",145.2
9,"CC1(C)[C@@H]2CC[C@]1(C)C(=O)C2 [ONC0000752, camphor]",80.99
10,"COc1cccc2c1c(O)c(C(=O)N(C)c1ccc(C(F)(F)F)cc1)c(=O)n2C [ONC0001379, tasquinimod]",119.2
11,"CCOC(=O)C1=C(C)NC2=C(C(=O)CC(C)(C)C2)C1c1ccc(-c2ccccc2)cc1 (stereo not drawn) [ONC0000150, itd1]",73.07
12,"CCCc1cc(C(N)=S)ccn1 [ONC0004191, protionamide]",96.24
13,"FC(F)(F)c1ccc(CNc2ccc(Cc3c[nH]c4ncccc34)cn2)cc1 [ONC0002656, plx647]",82.24
14,"O=C(O)C1CN(Cc2ccc(-c3nc4cc(Cc5ccccc5F)ccc4s3)c(F)c2)C1 [ONC0002231, tcsp14]",62.33
15,"C#Cc1cccc(Nc2ncnc3cc(OC)c(OCCCCCCC(=O)NO)cc23)c1 [ONC0004844, cudc101]",104.4
16,"Nc1nc2c(c(=O)[nH]1)NC(CNc1ccc(C(=O)N[C@@H](CCC(=O)O)C(=O)O)cc1)CN2 (stereo partly drawn) [ONC0005519, tetrahydrofolicacid]",129.8
17,"CC(=O)S[C@@H]1CC2=CC(=O)CC[C@]2(C)[C@H]2CC[C@@]3(C)[C@@H](CC[C@@]34CCC(=O)O4)[C@H]12 [ONC0000548, spironolactone]",87.32
18,"Nc1n[nH]c2nnc(-c3c(-c4ccccc4)nn4ccccc34)cc12 [ONC0000331, fr180204]",55.14
19,"CO[C@H]1/C=C/O[C@@]2(C)Oc3c(C)c(O)c4c(O)c(c(/C=N/N5CCN(C6CCCC6)CC5)c(O)c4c3C2=O)NC(=O)/C(C)=C\C=C\[C@H](C)[C@H](O)[C@@H](C)[C@@H](O)[C@@H](C)[C@H](OC(C)=O)[C@@H]1C [ONC0002002, rifapentine]",77.39
20,"CC(C)(C)NC[C@@H](O)COc1cccc2c1CCCC2=O [ONC0002849, levobunolol]",116.9

# Two compounds picked at random from the list so far, as already listed:
row,Compound,% viability [%]
19,"CO[C@H]1/C=C/O[C@@]2(C)Oc3c(C)c(O)c4c(O)c(c(/C=N/N5CCN(C6CCCC6)CC5)c(O)c4c3C2=O)NC(=O)/C(C)=C\C=C\[C@H](C)[C@H](O)[C@@H](C)[C@@H](O)[C@@H](C)[C@H](OC(C)=O)[C@@H]1C [ONC0002002, rifapentine]",77.39
13,"FC(F)(F)c1ccc(CNc2ccc(Cc3c[nH]c4ncccc34)cn2)cc1 [ONC0002656, plx647]",82.24
